No constants are given. Whether binding was seen depends on the method and setting. In cells and extracts the contact can be indirect. Some entries that bind do so weakly or less than the wild type. One block for each molecule: values may come before it.
Columns and labels:
[1] = biological target: T1, Ephexin4 (full-length, wild type) (UniProt Q5VV41); assay: co-IP; RhoG binding assay: 293T cells co-transfected, lysis buffer with 10 µM EDTA; anti-FLAG precipitation, RhoG detected with anti-GFP; with or without co-expressed SH3 domain (Fig. 4b) or exogenous Elmo1 (Fig. 4d)
T1 sequence: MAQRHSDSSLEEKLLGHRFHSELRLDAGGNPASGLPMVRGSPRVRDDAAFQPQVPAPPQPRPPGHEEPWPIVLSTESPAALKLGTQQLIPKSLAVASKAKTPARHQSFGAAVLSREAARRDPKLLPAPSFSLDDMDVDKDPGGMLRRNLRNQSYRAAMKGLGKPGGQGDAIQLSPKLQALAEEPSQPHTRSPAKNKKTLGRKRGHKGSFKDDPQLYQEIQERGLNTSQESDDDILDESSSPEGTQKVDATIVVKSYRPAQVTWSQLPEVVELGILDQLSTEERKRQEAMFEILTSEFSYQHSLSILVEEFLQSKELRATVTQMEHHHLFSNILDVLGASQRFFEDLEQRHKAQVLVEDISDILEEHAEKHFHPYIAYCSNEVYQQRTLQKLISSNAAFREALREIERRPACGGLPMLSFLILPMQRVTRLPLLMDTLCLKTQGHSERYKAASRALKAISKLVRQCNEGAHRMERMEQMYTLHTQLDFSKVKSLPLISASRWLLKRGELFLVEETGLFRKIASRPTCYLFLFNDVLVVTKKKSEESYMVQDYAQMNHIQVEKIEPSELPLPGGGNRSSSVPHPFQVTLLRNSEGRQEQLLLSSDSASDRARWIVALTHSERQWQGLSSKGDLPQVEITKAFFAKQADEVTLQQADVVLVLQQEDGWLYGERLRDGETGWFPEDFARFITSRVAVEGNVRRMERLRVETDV

By UniProt entry, the sequences of proteins in these tests, tags left out. Residues count along the entry.
UniProt P84095: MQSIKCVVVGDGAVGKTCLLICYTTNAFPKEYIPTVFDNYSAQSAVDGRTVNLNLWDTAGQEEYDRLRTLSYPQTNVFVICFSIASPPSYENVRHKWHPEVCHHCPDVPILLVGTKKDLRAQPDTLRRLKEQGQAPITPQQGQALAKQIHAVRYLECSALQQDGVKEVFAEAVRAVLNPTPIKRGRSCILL
UniProt Q92556, residues 532-707: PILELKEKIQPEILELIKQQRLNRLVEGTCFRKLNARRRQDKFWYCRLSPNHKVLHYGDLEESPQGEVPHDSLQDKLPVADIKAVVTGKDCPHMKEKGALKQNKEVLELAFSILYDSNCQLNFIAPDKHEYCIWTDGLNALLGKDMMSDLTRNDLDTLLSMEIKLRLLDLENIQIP

[2] = biological target: T2, Ephexin4^280-628 (UniProt Q5VV41); assay: as above
T2 sequence: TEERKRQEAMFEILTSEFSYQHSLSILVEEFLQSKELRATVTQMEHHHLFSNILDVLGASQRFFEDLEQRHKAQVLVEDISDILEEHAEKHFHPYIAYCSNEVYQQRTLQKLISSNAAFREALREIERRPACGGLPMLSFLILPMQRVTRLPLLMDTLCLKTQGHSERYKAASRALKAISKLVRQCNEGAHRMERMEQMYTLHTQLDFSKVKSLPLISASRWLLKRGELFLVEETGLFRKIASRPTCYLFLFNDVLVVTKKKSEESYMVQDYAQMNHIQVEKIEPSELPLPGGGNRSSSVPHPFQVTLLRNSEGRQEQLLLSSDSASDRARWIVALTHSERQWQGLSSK

[3] = biological target: T3, SH3 domain of Ephexin4 (UniProt Q5VV41); assay: pull-down; 293T cells co-transfected; lysates precipitated with glutathione–Sepharose beads, 2 h at 4 °C; co-precipitated proteins detected with anti-GFP (Fig. 3a,d) or anti-FLAG (Fig. 3b,c, 4a)
T3 sequence: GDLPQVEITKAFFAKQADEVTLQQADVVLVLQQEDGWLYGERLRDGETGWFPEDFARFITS

[4] = biological target: T3, SH3 domain of Ephexin4; assay: co-IP; 293T cells co-transfected; anti-FLAG immunoprecipitation of lysates (1% Triton X-100, 150 mM NaCl, pH 7.6), 2 h at 4 °C; anti-GFP immunoblot (Fig. 2a-c)
[5] = biological target: T3, SH3 domain of Ephexin4; assay: pull-down; 293T cells co-transfected; lysates precipitated with glutathione–Sepharose beads, 2 h at 4 °C; co-precipitated proteins detected with anti-GFP (Fig. 3a,d) or anti-FLAG (Fig. 3b,c, 4a); remark: listed apart in the source
[6] = biological target: T1, Ephexin4 (full-length, wild type); assay: co-IP; 293T cells co-transfected; anti-FLAG immunoprecipitation of lysates (1% Triton X-100, 150 mM NaCl, pH 7.6), 2 h at 4 °C; anti-GFP immunoblot (Fig. 2a-c)

binding [1]: binds
binding [2]: binds
Molecule: RhoG (nucleotide-free) (from UniProt P84095 1-191)

binding [3]: no binding
Molecule: Elmo1^532-707 (from UniProt Q92556 532-707) (domain or fragment)

binding [2]: binds
B1: SH3 domain of Ephexin4 (domain or fragment, UniProt Q5VV41 629-689)
chain: GDLPQVEITKAFFAKQADEVTLQQADVVLVLQQEDGWLYGERLRDGETGWFPEDFARFITS

binding [4]: binds
B2: Ephexin4^280-626 (domain or fragment, UniProt Q5VV41 280-626)
chain: TEERKRQEAMFEILTSEFSYQHSLSILVEEFLQSKELRATVTQMEHHHLFSNILDVLGASQRFFEDLEQRHKAQVLVEDISDILEEHAEKHFHPYIAYCSNEVYQQRTLQKLISSNAAFREALREIERRPACGGLPMLSFLILPMQRVTRLPLLMDTLCLKTQGHSERYKAASRALKAISKLVRQCNEGAHRMERMEQMYTLHTQLDFSKVKSLPLISASRWLLKRGELFLVEETGLFRKIASRPTCYLFLFNDVLVVTKKKSEESYMVQDYAQMNHIQVEKIEPSELPLPGGGNRSSSVPHPFQVTLLRNSEGRQEQLLLSSDSASDRARWIVALTHSERQWQGLS

binding [5]: binds
B3: N20 region of Ephexin4 (amino acids 224–378) (domain or fragment, UniProt Q5VV41 224-378)
chain: LNTSQESDDDILDESSSPEGTQKVDATIVVKSYRPAQVTWSQLPEVVELGILDQLSTEERKRQEAMFEILTSEFSYQHSLSILVEEFLQSKELRATVTQMEHHHLFSNILDVLGASQRFFEDLEQRHKAQVLVEDISDILEEHAEKHFHPYIAYC

binding [6]: binds
B4: Ephexin4 (full-length, wild type) (natural protein, UniProt Q5VV41 1-709, looked up)
chain: MAQRHSDSSLEEKLLGHRFHSELRLDAGGNPASGLPMVRGSPRVRDDAAFQPQVPAPPQPRPPGHEEPWPIVLSTESPAALKLGTQQLIPKSLAVASKAKTPARHQSFGAAVLSREAARRDPKLLPAPSFSLDDMDVDKDPGGMLRRNLRNQSYRAAMKGLGKPGGQGDAIQLSPKLQALAEEPSQPHTRSPAKNKKTLGRKRGHKGSFKDDPQLYQEIQERGLNTSQESDDDILDESSSPEGTQKVDATIVVKSYRPAQVTWSQLPEVVELGILDQLSTEERKRQEAMFEILTSEFSYQHSLSILVEEFLQSKELRATVTQMEHHHLFSNILDVLGASQRFFEDLEQRHKAQVLVEDISDILEEHAEKHFHPYIAYCSNEVYQQRTLQKLISSNAAFREALREIERRPACGGLPMLSFLILPMQRVTRLPLLMDTLCLKTQGHSERYKAASRALKAISKLVRQCNEGAHRMERMEQMYTLHTQLDFSKVKSLPLISASRWLLKRGELFLVEETGLFRKIASRPTCYLFLFNDVLVVTKKKSEESYMVQDYAQMNHIQVEKIEPSELPLPGGGNRSSSVPHPFQVTLLRNSEGRQEQLLLSSDSASDRARWIVALTHSERQWQGLSSKGDLPQVEITKAFFAKQADEVTLQQADVVLVLQQEDGWLYGERLRDGETGWFPEDFARFITSRVAVEGNVRRMERLRVETDV
notes: Ephexin4, guanine nucleotide-exchange factor for RhoG; full-length; also called Epx4; Ephexin4-FLAG

Reference: paper PMC5493634, “Intermolecular steric inhibition of Ephexin4 is relieved by Elmo1” (Scientific Reports, 2017)
